Experimental data published in patent US7589170B1 (priority 1998, dated 2009).

How the values were obtained:
[1] = general procedure: peptide synthesis; chlorotrityl resin (0.91 mmol/g); Fmoc-Ala-Wang resin (0.45 mmol/gr); Boc-Gly-Pam resin (0.5 mmol/g); Boc-Phe-PAM resin; HBTU; conditions: TFA salt; for cyclisation yield: cyclisation step
[2] = solid-phase peptide synthesis; conditions: whole synthesis, from the starting resin, scale 0.5 mmol, TFA salt
[3] = general procedure: peptide synthesis; Fmoc-Ala-Wang; HBTU; conditions: whole synthesis, TFA salt
[4] = head-to-tail ring, sequence written open

Work on G[Sar]G[Sar] yielded a cyclisation yield [1] of 2%.

For cyclo(YRF[dA]), the step yield ([1]; late stage modification step) was 42%.

Work on cyclo(NSLAIPFNSLAIPFNSLAIPF) yielded a cyclisation yield [1] of 5% and an isolated yield ([1]; whole synthesis) of 1%.

“NH2CH2CH2SSCH2CH2-Gly-Arg-Pro-Phe-Gly-OH” showed an isolated yield ([1]; whole synthesis) of 47%.

Substance cyclo(LDVG[βAla]) has an isolated yield ([1]; whole synthesis) of 18%.

Substance Cyclo-(Gly(CH2CH2SH)-Arg-Pro-Phe-Gly) has a step yield ([1]; late stage modification step) of 74%.

“Cyclo-[N-(5-nitro-2-hydroxybenzyl)-Ala-Phe-Leu-Pro-Ala]” gave a cyclisation yield ([1]; run 1) of 50% isolated yield and a cyclisation yield ([1]; run 2) of 51%.

With Cyclo-[(Hnb)Tyr-(Hnb)Arg-Phe-Gly] the cyclisation yield [1] was 61%.

For HSCH2CH2-Gly-Arg-Phe-Gly-OH, the step yield ([1]; late stage modification step) was 68%.

For GG[Sar][Sar], the cyclisation yield [1] was 18%.

With H-NSLAIPF-OH the isolated yield ([1]; whole synthesis) was 78%.

In the case of cyclo-[(Hnb)Tyr-Arg-(Hnb)Phe-(D)Ala], the cyclisation yield [1] is reported as 18%.

In the case of Gly-Sar-Sar-Sar, the cyclisation yield [1, 4] is reported as roughly 5%.

Work on cyclo(PFNSLAI) yielded a cyclisation yield ([1]; run 1) of 48%, a cyclisation yield ([1]; run 2) of 67% and an isolated yield ([1]; whole synthesis, run 1) of 10%. It also gave an isolated yield ([1]; whole synthesis, run 2) of 25%.

Work on GGG[Sar] yielded a cyclisation yield [1] of 8%.

Work on H-PFNSLAI-OH yielded an isolated yield ([1]; whole synthesis) of 39%.

With cyclo(NSLAIPFNSLAIPF) the cyclisation yield [1] was 21%, the isolated yield ([1]; whole synthesis, run 1) was 24.5% and the isolated yield ([1]; whole synthesis, run 2) was less than 1%.

In the case of cyclo-[D-G-Amb-R-G], the isolated yield ([1]; whole synthesis) is reported as 7.6%.

For “Cyclo-[N-(6-nitro-2-hydroxybenzyl)-Phe-Leu-Pro-Ala-Ala]”, the cyclisation yield ([1]; run 1) was 45% and the cyclisation yield ([1]; run 2) was 44%.

For “Bis-[cyclo-Gly(CH2CH2S)-Arg-Pro-Phe-Gly]”, the cyclisation yield [1] was 81%.

With “Cyclo-[N-(6-nitro-2-hydroxybenzyl)-Ala-Phe-Leu-Pro-Ala]” the cyclisation yield [1] was 39%.

For G[Sar]GG, the cyclisation yield [1] was 1%.

In the case of Gly-Gly-Gly-Gly, the cyclisation yield [1, 4] is reported as less than 1%.

In the case of Cyclo-[(Hnb)Tyr-Arg-(Hnb)Phe-Ala], the cyclisation yield [1] is reported as 60%.

For cyclo-[(Hnb)Tyr-Arg-(Hnb)Phe-Ala], the cyclisation yield [1] was 13%.

Substance GG[Sar]G has a cyclisation yield [1] of 11%.

For cyclo(YRFG), the step yield ([1]; late stage modification step) was 47%.

G[Sar][Sar]G gave a cyclisation yield [1] of 13%.

In the case of Cyclo-(SCH2CH2-Gly-Arg-Pro-Phe-Gly), the cyclisation yield [1] is reported as 31%.

Work on cyclo-[D-Amb-GRG] yielded an isolated yield ([1]; whole synthesis) of 5% monomer.

Substance cyclo-[DG-Act-RG] has an isolated yield [2] of 11% and an isolated mass ([1]; whole synthesis, scale 0.5 mmol) of 27 mg.

For cyclo(AFLPA), the step yield ([1]; late stage modification step, run 1) was 52% and 28%.

With cyclo(YRFA) the difficulty met ([1]; late stage modification step) was “The two cyclic products were subjected to heating and to photolysis: • Product A: Unstable to heat; the product fully decomposed upon heating for 20 h at 70 °C in DMSO”.

For [Hnb]Ala-Tyr-[Hnb]Arg-Phe, the isolated yield [3] was 28%.

“And” between values parts separate entries of the source, which are not always exact repeats. Identical values can stand only once. Non-standard residues stand in square brackets, D forms with d. No end group written: not given here. βAla = NCCC(=O)O; Sar = CNCC(=O)O
